The results in this text go back to patent publication US20170100458A1.

Sequences of proteins named here, by UniProt entry; tags and fusion partners are left off. Residues count along the entry.
UniProt P09405, residues 2-707: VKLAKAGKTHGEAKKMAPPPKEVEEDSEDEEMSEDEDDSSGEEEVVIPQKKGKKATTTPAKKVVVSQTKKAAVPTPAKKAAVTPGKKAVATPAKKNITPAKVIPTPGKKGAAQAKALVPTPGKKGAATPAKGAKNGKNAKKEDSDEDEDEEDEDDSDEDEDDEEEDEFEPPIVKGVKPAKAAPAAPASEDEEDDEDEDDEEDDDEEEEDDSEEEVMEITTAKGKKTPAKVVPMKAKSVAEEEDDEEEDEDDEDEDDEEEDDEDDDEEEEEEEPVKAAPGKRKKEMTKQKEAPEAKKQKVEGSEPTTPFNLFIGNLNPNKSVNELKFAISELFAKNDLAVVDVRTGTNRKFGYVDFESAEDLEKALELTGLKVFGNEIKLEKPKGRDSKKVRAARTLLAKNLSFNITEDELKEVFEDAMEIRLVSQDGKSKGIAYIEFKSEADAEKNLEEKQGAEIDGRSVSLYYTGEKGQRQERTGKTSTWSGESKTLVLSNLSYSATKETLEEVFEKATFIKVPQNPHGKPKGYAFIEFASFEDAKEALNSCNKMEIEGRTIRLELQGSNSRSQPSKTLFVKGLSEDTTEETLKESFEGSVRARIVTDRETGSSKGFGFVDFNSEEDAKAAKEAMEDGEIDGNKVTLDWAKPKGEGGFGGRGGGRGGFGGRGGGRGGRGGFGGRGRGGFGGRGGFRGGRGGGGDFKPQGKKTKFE

The test addresses Nucleolin (endogenous, MDPC-23 cells) (mouse) (UniProt P09405). The test can be described thus: co-immunoprecipitation from MDPC-23 cells transfected with flag-tagged CPNE7, western blot with anti-Nucleolin; immunofluorescence co-localization.

Results are given in words; binding and its absence hold for the method and conditions named. In cells and extracts the contact can be indirect. Some entries that bind do so weakly or less than the wild type. Tags and fused reporters may be left off the sequences shown.

B1: flag-tagged CPNE7 (exogenous, DDK (Flag)-tagged CPNE7, NM_153636) (protein, human, UniProt Q9UBL6-2 1-558, looked up, not shown: small tags and cut ends)
chain: MSAGSERGAAATPGGLPAPCASKVELRLSCRHLLDRDPLTKSDPSVALLQQAQGQWVQVGRTEVVRSSLHPVFSKVFTVDYYFEEVQRLRFEVYDTHGPSGFSCQEDDFLGGMECTLGQIVAQKKVTRPLLLKFGRNAGKSTITVIAEDISGNNGYVELSFRARKLDDKDLFSKSDPFLELYRVNDDQGLQLVYRTEVVKNNLNPVWEAFKVSLSSLCSCEETRPLKCLVWDYDSRGKHDFIGEFSTTFEEMQKAFEEGQAQWDCVNPKYKQKRRSYKNSGVVVLADLKFHRVYSFLDYIMGGCQIHFTVAIDFTASNGDPRNSCSLHYINPYQPNEYLKALVSVGEICQDYDSDKRFSALGFGARIPPKYEVSHDFAINFNPEDDECEGIQGVVEAYQNCLPRVQLYGPTNVAPIISKVARVAAAEESTGKASQYYILLILTDGVVTDMADTREAIVRASRLPMSIIIVGVGNADFTDMQVLDGDDGVLRSPRGEPALRDIVQFVPFRELKNASPAALAKCVLAEVPKQVVEYYSHRGLPPRSLGVPAGEASPGCTP
As to B1, the binding result was “binds”.
